# According to PMC5998563:
# Amino acid sequences for entries named in this document (tags omitted). Residues count along the entry.
# UniProt P38646, residues 47-679: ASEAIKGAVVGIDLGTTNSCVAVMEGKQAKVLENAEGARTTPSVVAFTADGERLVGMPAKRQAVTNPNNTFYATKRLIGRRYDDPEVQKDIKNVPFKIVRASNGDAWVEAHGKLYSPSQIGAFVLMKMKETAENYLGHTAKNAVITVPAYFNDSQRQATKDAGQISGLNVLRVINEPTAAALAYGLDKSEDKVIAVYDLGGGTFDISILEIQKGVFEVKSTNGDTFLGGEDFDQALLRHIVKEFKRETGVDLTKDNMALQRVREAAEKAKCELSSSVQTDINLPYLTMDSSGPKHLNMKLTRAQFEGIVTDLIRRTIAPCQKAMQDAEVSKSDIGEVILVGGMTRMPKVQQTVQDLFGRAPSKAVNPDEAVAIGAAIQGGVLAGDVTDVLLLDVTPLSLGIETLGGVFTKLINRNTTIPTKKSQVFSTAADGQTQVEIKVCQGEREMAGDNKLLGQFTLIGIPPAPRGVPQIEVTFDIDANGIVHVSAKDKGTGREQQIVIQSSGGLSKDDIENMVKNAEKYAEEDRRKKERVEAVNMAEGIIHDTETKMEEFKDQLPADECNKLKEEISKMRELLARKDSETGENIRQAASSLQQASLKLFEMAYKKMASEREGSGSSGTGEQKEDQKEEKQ
# Results are given in words; binding and its absence hold for the method and conditions named. In cells and extracts the contact can be indirect. Some results given as binding are weak or reduced against the parent protein; the word gives no strength. Tags and fused reporters may be left off the sequences shown.
# B1: murine REDD1 fused to Myc (protein, UniProt Q9D3F7 1-229)
# chain: MPSLWDRFSSSSSSSSSSRTPAADRPPRSAWGSAAREEGLDRCASLESSDCESLDSSNSGFGPEEDSSYLDGVSLPDFELLSDPEDEHLCANLMQLLQESLSQARLGSRRPARLLMPSQLVSQVGKELLRLAYSEPCGLRGALLDVCVEQGKSCHSVAQLALDPSLVPTFQLTLVLRLDSRLWPKIQGLLSSANSSLVPGYSQSLTLSTGFRVIKKKLYSSEQLLIEEC
# Target: 75 kDa glucose-regulated protein (GRP75) (human (endogenous in primary myoblasts)) (UniProt P38646)
# Assay: proximity ligation; Duolink II in situ PLA in human myoblasts transfected with empty vector (pCMV) or mycREDD1; cells fixed with 4% formaldehyde, permeabilized with 0.1% Triton X100; fluorescence read-out
binder,measurement,value
B1,binding,binds
